# The whole screen tested about 330,000 compounds, of which about 7,700 (2.3%) were called active. This list was built around the results that the source calls inconclusive (neither active nor inactive); the mix of calls is not that of the screen. Calls come from the whole dose curve; as a rule, active = well fitted inhibition curve with a large enough effect; inconclusive = small, poorly fitted or top-dose-only effect, or effect the other way; inactive = flat fitted curve, though single readings scatter. Potencies beside an inconclusive call are fits to weak or partial responses and may not hold up.
# Assay: qHTS screen for small molecules that inhibit ELG1-dependent DNA repair in human embryonic kidney (HEK293T) cells expressing luciferase-tagged ELG1; note: nearly all actives have a fitted effect of over 55% in size
# Conditions: HEK293T ELG1-luciferase reporter, luminescence, 16 h, DNA damage induced by 5-fluorouridine; series mostly up to 46.1 µM
# Procedure, shortened: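 Step one: seed 2,000 cells per well. Step two: pin-transfer compound or DMSO alongside 5-fluorouridine. Step three: incubate 16 hr, 37 °C, 5% CO2. Step four: add ONE-Glo, wait 30 min, read luminescence.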
# Potency is the fitted concentration of half-maximal effect.
row,SMILES,Potency
1,COc1ccccc1CN1CC(C(=O)N(CCO)Cc2cccs2)CCC1=O (stereo not drawn),inactive
2,c1ccc(-n2cnc3ccccc32)nc1,"inconclusive: 5.01 µM [inhibitor, full curve, poor fit]"
3,Cc1ccc2ncccc2c1N,inactive
4,COc1cccc(NC(=O)c2cccc(Cl)c2)c1,"inconclusive: 13 µM [activator, partial curve, poor fit]"
5,COc1nc(Oc2ccc(/C=N/O)cc2)nc(N(C)C)n1,"inconclusive: 32.6 µM [activator, single point]"
6,COc1cc2cnc(-c3ccccc3)c(C(=O)c3ccc(F)cc3)c2cc1OC,"inconclusive: 20.6 µM [inhibitor, single point]"
7,O=C(N1CCN(c2ccc(F)cc2)CC1)C12CC3CC(CC(C3)C1)C2,"inconclusive: 1.3 µM [activator, single point]"
8,CCOc1ccc(-c2ccc(/C=C3/C(=N)N4C(C)=CSC4=NC3=O)o2)c([N+](=O)[O-])c1,active: 25.9 µM
9,Nc1ncnc(SCc2c(F)cccc2Cl)n1,"inconclusive: 20.6 µM [activator, partial curve, poor fit]"
10,CC(OC(=O)c1ccc(CN2CCCC2=O)cc1)C(=O)Nc1ccc(Cl)cc1 (stereo not drawn),inactive
11,Cn1c(CCNC(=O)c2ccco2)nc2cc(NC(=O)c3ccccc3Cl)ccc21,"inconclusive: 11.6 µM [activator, partial curve, poor fit]"
12,COc1cccc(C(=O)Nc2ccc3[nH]ncc3c2)c1,"inconclusive: 8.2 µM [activator, partial curve]"
13,CC(=O)c1ccc(C(=O)NC2CC(C)(C)Cc3c2cnn3-c2ccccc2)cc1 (stereo not drawn),inactive
14,O=C(COC(=O)C1CC2C=CC1C2)NCCc1ccccc1 (stereo not drawn),"inconclusive: 16.4 µM [activator, partial curve, poor fit]"
15,COc1ccc2nc(/C=N/NC(=O)[C@@H]3CCCN3C(=O)OC(C)(C)C)ccc2c1,"inconclusive: 7.3 µM [activator, partial curve]"
16,COc1ccc(NC(=O)CSc2nccn2Cc2ccccc2)c(OC)c1,"inconclusive: 29.1 µM [activator, partial curve, poor fit]"
17,Nc1nc2c(C(=O)N3CCOCC3)nnn2c2ccccc12,"inconclusive: 16.4 µM [activator, partial curve]"
18,O=C(CC(=O)c1c(F)cccc1Cl)c1ccccc1O,"inconclusive: 32.6 µM [inhibitor, single point]"
19,O=S(=O)(Nc1cccc(-c2cn3cccnc3n2)c1)c1ccc(Cl)cc1,inactive
20,COc1ccc(CCNC(=O)COC(=O)/C=C/c2ccc3c(c2)OCO3)cc1OC,"inconclusive: 2.91 µM [inhibitor, partial curve]"
21,O=C(Cn1cnc2c(NCc3ccccc3)ncnc21)NCc1ccccc1,"inconclusive: 1.83 µM [inhibitor, partial curve, poor fit]"
22,O=C(COC(=O)C1CC1)c1c[nH]c2ccccc12,"inconclusive: 18.4 µM [activator, partial curve]"
23,COC(=O)C1=C(C)N(C)C(=O)NC1c1ccccc1 (stereo not drawn),inactive

# 5 compounds drawn at random from those above, as already listed:
row,SMILES,Potency
21,O=C(Cn1cnc2c(NCc3ccccc3)ncnc21)NCc1ccccc1,"inconclusive: 1.83 µM [inhibitor, partial curve, poor fit]"
18,O=C(CC(=O)c1c(F)cccc1Cl)c1ccccc1O,"inconclusive: 32.6 µM [inhibitor, single point]"
20,COc1ccc(CCNC(=O)COC(=O)/C=C/c2ccc3c(c2)OCO3)cc1OC,"inconclusive: 2.91 µM [inhibitor, partial curve]"
8,CCOc1ccc(-c2ccc(/C=C3/C(=N)N4C(C)=CSC4=NC3=O)o2)c([N+](=O)[O-])c1,active: 25.9 µM
14,O=C(COC(=O)C1CC2C=CC1C2)NCCc1ccccc1 (stereo not drawn),"inconclusive: 16.4 µM [activator, partial curve, poor fit]"

# Further entries:

row,SMILES,Potency
1,CN(CCNC(=O)c1cc2c(=O)n(C)c3ccccc3c2n1C)Cc1ccccc1,"inconclusive: 29.1 µM [inhibitor, partial curve, poor fit]"
2,O=C(Nc1ccc([N+](=O)[O-])cn1)c1ccc2c(c1)OCO2,"inconclusive: 2.59 µM [activator, partial curve]"
3,CN1CCN(C(=O)C2CCN(c3ncc(C(F)(F)F)cc3Cl)CC2)CC1,"inconclusive: 20.6 µM [inhibitor, single point]"
4,O=C(COc1cc2oc(=O)c3c(c2cc1Cl)CCC3)NCc1ccncc1,"inconclusive: 29.1 µM [inhibitor, partial curve, poor fit]"
5,Cc1cc(C)c(NC(=O)CN(C)C(=O)CCC(=O)c2ccc(C)s2)c(C)c1,inactive
6,CCn1c2ccccc2c2cc(NC(C)=O)ccc21,inactive
7,O=C(Oc1ccc(OC(=O)N2CCCCC2)cc1)c1ccccc1,"inconclusive: 20.6 µM [activator, partial curve]"
8,CCC(=O)Nc1ccc(C(=O)Cn2ncc(Cl)c(Cl)c2=O)cc1,"inconclusive: 29.1 µM [inhibitor, single point]"
9,CCc1cc2ccc(C)cc2nc1SCC(=O)NNC(=O)c1ccco1,inactive
10,CCCNC(=O)c1ccc(COc2ccc(CCC)cc2OC)o1,"inconclusive: 20.6 µM [inhibitor, single point]"
11,O=C(NC1CCCCCC1)C1CCN(c2nc3ccccc3o2)CC1,"inconclusive: 23.1 µM [inhibitor, partial curve, poor fit]"
12,COc1ccc(-c2cc(C(=O)NC3=NCCS3)c3ccccc3n2)cc1OC,active: 16.4 µM
13,CCn1c(SCC(=O)N/N=C/c2c[nH]c3ccccc23)nnc1-c1ccc(C)cc1,"inconclusive: 16.4 µM [inhibitor, single point]"
14,O=C(Nc1cccc([N+](=O)[O-])c1)C1C2/C=C\CCCCC21 (stereo not drawn),inactive
15,CCOc1ccccc1-n1c(SCC(=O)Nc2ccccc2C(=O)O)nc2ccccc2c1=O,"inconclusive: 14.6 µM [activator, partial curve]"
16,Cc1ccc(NC(=O)C2C3CCCC2C3c2ccccc2)c(C)c1 (stereo not drawn),inactive
17,CC(NC(=O)CSc1nnc2n1CCCCC2)c1ccccc1Cl (stereo not drawn),inactive
18,O=C(N=Nc1c(O)[nH]c2ccc(Br)cc12)c1ccccc1-n1cccc1,"inconclusive: 5.8 µM [inhibitor, partial curve, poor fit]"
19,Cc1c(C)c2ccc(OCC(=O)Nc3ccccn3)c(C)c2oc1=O,"inconclusive: 0.0052 µM [activator, full curve, poor fit]"
20,CC1CCc2sc3nc(NCc4ccco4)n4ncnc4c3c2C1 (stereo not drawn),"inconclusive: 25.9 µM [activator, single point]"
21,Cc1nc2ccccn2c1-c1nnco1,inactive
22,CCOC(=O)c1ccc(N2C(=O)[C@@H](c3ccccc3)[C@H]2c2ccccc2)cc1,"inconclusive: 18.3 µM [activator, partial curve]"
23,Cc1ccc(-c2nnc(NC3CCCC3)s2)cc1,"inconclusive: 5.8 µM [activator, partial curve]"

row,SMILES,Potency
1,COc1cc(CN2CCNC(=O)C2CC(=O)NC2CCCC2)cc(OC)c1 (stereo not drawn),inactive
2,COC(=O)C(C)Oc1ccc2c(c1)O/C(=C\c1ccco1)C2=O (stereo not drawn),inactive
3,CSc1ncccc1C(=O)OCc1c(F)cccc1Cl,"inconclusive: 14.6 µM [activator, single point]"
4,CC(=O)N1CCSc2ccc(S(=O)(=O)Nc3cccc(C)c3)cc21,"inconclusive: 23.1 µM [inhibitor, single point]"
5,CCN(CC(=O)Nc1c(Cl)cccc1Cl)C(=O)C1CCN(c2ncnc3sc(C)c(C)c23)CC1,"inconclusive: 29.1 µM [inhibitor, single point]"
6,CCC1CCCCN1S(=O)(=O)c1ccc(S(=O)(=O)N(Cc2ccccn2)CC2CCCO2)cc1 (stereo not drawn),active: 18.4 µM
7,O=c1c2c3c(sc2nc2sc(CN4CCCCC4)cn12)CCCC3,"inconclusive: 18.4 µM [activator, single point]"
8,O=C(NCCCN1CCOCC1)c1cccc(NS(=O)(=O)c2ccc(Br)cc2)c1,inactive
9,COc1ccc2oc(C(=O)Nc3ccccn3)c(C)c2c1,"inconclusive: 1.64 µM [activator, partial curve]"
10,CCC1CN(C(=O)N2CCC(C(=O)Nc3ccccc3OC)CC2)c2ccccc2O1 (stereo not drawn),"inconclusive: 23.1 µM [inhibitor, partial curve, poor fit]"
11,CCS(=O)(=O)n1c(Cc2cccs2)nc2ccccc21,"inconclusive: 35.5 µM [activator, single point]"
12,COC(=O)c1cccc(S(=O)(=O)N(Cc2ccco2)Cc2cc3cc(OC)ccc3[nH]c2=O)c1,active: 14.6 µM
13,CC1(C)COC(c2coc3ccccc3c2=O)OC1,"inconclusive: 18.4 µM [activator, partial curve]"
14,Cc1ccc(S(=O)(=O)CC(=O)N2CCN(c3ccc([N+](=O)[O-])cc3)CC2)cc1,active: 10.3 µM
15,CCOc1ccc(C(=O)NC(=S)Nc2ncccc2C)cc1[N+](=O)[O-],"inconclusive: 7.31 µM [activator, partial curve, poor fit]"
16,O=C(Cn1c2ccccc2c(=O)c2ccccc21)N/N=C/c1cc([N+](=O)[O-])ccc1N1CCCCCC1,"inconclusive: 32.6 µM [activator, partial curve, poor fit]"
17,COc1ccc(NC(=O)CN(C)C(=O)c2cc(-c3ccc(OC)cc3)nc3ccccc23)cc1,"inconclusive: 5.8 µM [inhibitor, single point]"
18,CCn1cc([N+](=O)[O-])c(C(=O)N2N=C(c3cccc4ccccc34)CC2c2ccccc2O)n1 (stereo not drawn),"inconclusive: 29.1 µM [inhibitor, single point]"
19,Cc1ccc(NC(=O)Nc2ccc3c(c2)nc(C)n3C)cc1,"inconclusive: 7.3 µM [activator, partial curve]"
20,Cc1cc(C)c(C#N)c(=N)o1,"inconclusive: 6.51 µM [inhibitor, single point]"
21,CCOc1ccc(OCC)c(NC(=O)CN2CCN(c3cccc(C)c3C)CC2)c1,"inconclusive: 7.31 µM [inhibitor, partial curve, poor fit]"
22,CCn1c2ccccc2c2nnc(SCC(=O)Nc3ccc4c(c3)OCO4)nc21,"inconclusive: 32.6 µM [activator, partial curve, poor fit]"
